Test results taken from the supplement of paper PMC6331611.
± gives the standard deviation of the averaged measurements. Over roughly 1,600 compounds, “normalized growth (OD600, IQM-normalized) in LPM” has its median near 1; the lowest 2% begin near 0.014. This is one part of the list.

Tested on: Salmonella enterica serovar Typhimurium SL1344
Assay: normalized growth (OD600, IQM-normalized) in LPM (fraction of plate interquartile mean); higher = more bacterial growth (less inhibition)
Conditions: LPM pH 5.8; 10 µM; 16 h

Row | SMILES | normalized growth
1 | CCc1c2c(nc3ccc(OC(=O)N4CCC(N5CCCCC5)CC4)cc13)-c1cc3c(c(=O)n1C2)COC(=O)[C@]3(O)CC | 1.01 ± 0.034
2 | C[C@H]1[C@H](NC(=O)/C(=N\OC(C)(C)C(=O)O)c2csc(N)n2)C(=O)N1S(=O)(=O)O | 0.0891 ± 0.0024
3 | CNCCC=C1c2ccccc2CCc2ccccc21 | 1.03 ± 0.053
4 | CCc1cc(C(N)=S)ccn1 | 1.16 ± 0.084
5 | CC(=O)Nc1c(I)c(NC(C)=O)c(I)c(C(=O)O)c1I | 1.12 ± 0.06
6 | CC(=O)Nc1ccc(S(=O)(=O)Nc2ccc([N+](=O)[O-])cc2)cc1 | 0.913 ± 0.049
7 | Cc1ccc(C(=O)Nc2ccc(S(=O)(=O)O)c3cc(S(=O)(=O)O)cc(S(=O)(=O)O)c23)cc1NC(=O)c1cccc(NC(=O)Nc2cccc(C(=O)Nc3cc(C(=O)Nc4ccc(S(=O)(=O)O)c5cc(S(=O)(=O)O)cc(S(=O)(=O)O)c45)ccc3C)c2)c1 | 0.988 ± 0.081
8 | O=C(N/N=C/c1ccc([N+](=O)[O-])o1)c1ccc(O)cc1 | 0.972 ± 0.071
9 | CN1CCN(C(c2ccccc2)c2ccc(Cl)cc2)CC1 (stereo not given) | 1.15 ± 0.052
10 | C[C@@H]1CN(c2c(F)c(N)c3c(=O)c(C(=O)O)cn(C4CC4)c3c2F)C[C@H](C)N1 | 0.0193 ± 0.0046
11 | C[C@@H]1O[C@@H]1P(=O)(O)O | 0.909 ± 0.032
12 | Cc1ccc(S(=O)(=O)NCl)cc1 | 0.83 ± 0.069
13 | CCn1cc(C(=O)O)c(=O)c2cc(F)c(N3CCN(C)CC3)cc21 | 0.0116 ± 0.00051
14 | CCC1=C[C@@H]2CN(C1)Cc1c([nH]c3ccccc13)[C@@](C(=O)OC)(c1cc3c(cc1OC)N(C)[C@H]1[C@@](O)(C(=O)OC)[C@H](OC(C)=O)[C@]4(CC)C=CCN5CC[C@]31[C@@H]54)C2 | 1.47 ± 0.21
15 | OCc1ccccc1 | 1.04 ± 0.012
16 | CNC(=C[N+](=O)[O-])NCCSCc1csc(CN(C)C)n1 | 1.15 ± 0.28
17 | CS(=O)(=O)Nc1ccc([N+](=O)[O-])cc1Oc1ccccc1 | 1.08 ± 0.035
18 | CCn1cc(C(=O)O)c(=O)c2cc(F)c(N3CCNC(C)C3)c(F)c21 (stereo not given) | 0.0416 ± 0.00075
19 | C[C@]12C=CC(=O)C=C1CC[C@@H]1[C@@H]2C(=O)C[C@@]2(C)[C@H]1CC[C@]2(O)C(=O)CO | 1.04 ± 0.055
20 | CCOC(=O)CCC(=O)O[C@H]1[C@H](O[C@@H]2[C@@H](C)[C@H](O[C@H]3C[C@@](C)(OC)[C@@H](O)[C@H](C)O3)[C@@H](C)C(=O)O[C@H](CC)[C@@](C)(O)[C@H](O)[C@@H](C)C(=O)[C@H](C)C[C@@]2(C)O)O[C@H](C)C[C@@H]1N(C)C | 1.14 ± 0.045

Gathered by group: the entries above containing a halogen (six)
Row | SMILES | normalized growth
5 | CC(=O)Nc1c(I)c(NC(C)=O)c(I)c(C(=O)O)c1I | 1.12 ± 0.06
9 | CN1CCN(C(c2ccccc2)c2ccc(Cl)cc2)CC1 (stereo not given) | 1.15 ± 0.052
10 | C[C@@H]1CN(c2c(F)c(N)c3c(=O)c(C(=O)O)cn(C4CC4)c3c2F)C[C@H](C)N1 | 0.0193 ± 0.0046
12 | Cc1ccc(S(=O)(=O)NCl)cc1 | 0.83 ± 0.069
13 | CCn1cc(C(=O)O)c(=O)c2cc(F)c(N3CCN(C)CC3)cc21 | 0.0116 ± 0.00051
18 | CCn1cc(C(=O)O)c(=O)c2cc(F)c(N3CCNC(C)C3)c(F)c21 (stereo not given) | 0.0416 ± 0.00075

Excerpt: compounds 13–14
Row | SMILES | normalized growth
13 | CCn1cc(C(=O)O)c(=O)c2cc(F)c(N3CCN(C)CC3)cc21 | 0.0116 ± 0.00051
14 | CCC1=C[C@@H]2CN(C1)Cc1c([nH]c3ccccc13)[C@@](C(=O)OC)(c1cc3c(cc1OC)N(C)[C@H]1[C@@](O)(C(=O)OC)[C@H](OC(C)=O)[C@]4(CC)C=CCN5CC[C@]31[C@@H]54)C2 | 1.47 ± 0.21

Remaining list, next part.

Row | SMILES | normalized growth
21 | NS(=O)(=O)c1ccc(C(=O)O)cc1 | 0.995 ± 0.082
22 | CCOc1ccccc1C(N)=O | 1.09 ± 0.023
23 | CO[C@H]1C[C@@H]2CC[C@@H](C)[C@@](O)(O2)C(=O)C(=O)N2CCCC[C@H]2C(=O)O[C@H]([C@H](C)C[C@@H]2CC[C@@H](O)[C@H](OC)C2)CC(=O)[C@H](C)/C=C(\C)[C@@H](O)[C@@H](OC)C(=O)[C@H](C)C[C@H](C)/C=C/C=C/C=C/1C | 0.964 ± 0.048
24 | CC(=O)N1CCN(c2ccc(OCC3COC(Cn4ccnc4)(c4ccc(Cl)cc4Cl)O3)cc2)CC1 (stereo not given) | 1 ± 0.049
25 | CC(C)NCC(O)c1ccc(NS(C)(=O)=O)cc1 (stereo not given) | 0.992 ± 0.044
26 | C#C[C@]1(O)CC[C@H]2[C@@H]3CCc4cc(OC)ccc4[C@H]3CC[C@@]21C | 0.923 ± 0.032
27 | O=C(O)P(=O)(O)O | 0.953 ± 0.027
28 | CCCCCCCCCCCCCCCC[N+](C)(C)CCN(Cc1ccc(OC)cc1)c1ncccn1 | 1.11 ± 0.022
29 | Cc1nc(C)c(Cl)c(O)c1Cl | 1.12 ± 0.079
30 | CCN(CC)CCCC(C)Nc1c2ccc(Cl)cc2nc2ccc(OC)cc12 (stereo not given) | 1.06 ± 0.024
31 | CNC(=C[N+](=O)[O-])NCCSCc1ccc(CN(C)C)o1 | 0.873 ± 0.062
32 | COC(=O)[C@H]1[C@H]2C[C@@H]3c4[nH]c5cc(OC)ccc5c4CCN3C[C@H]2C[C@@H](OC(=O)c2cc(OC)c(OC)c(OC)c2)[C@@H]1OC | 0.967 ± 0.021
33 | CCCc1nc(C)c2c(O)nc(-c3cc(S(=O)(=O)N4CCN(CC)CC4)ccc3OCC)nn12 | 1.02 ± 0.053
34 | N[C@H](Cc1ccccc1)C(=O)O | 1.05 ± 0.055
35 | CNC[C@H](O)c1cccc(O)c1 | 0.926 ± 0.14
36 | CCN(CC)CCNC(=O)c1ccc(NC(C)=O)cc1 | 0.921 ± 0.075
37 | CN1C(=O)CC(C)(c2ccccc2)C1=O (stereo not given) | 0.912 ± 0.037
38 | CC(C)(CO)[C@@H](O)C(=O)NCCCO | 0.93 ± 0.017
39 | CCOC(=O)[C@H](CCc1ccccc1)N[C@@H](C)C(=O)N1[C@H](C(=O)O)C[C@H]2CCCC[C@@H]21 | 1.02 ± 0.013
40 | OC[C@@H](O)[C@@H](O)CO | 0.975 ± 0.05

Row | SMILES | normalized growth
41 | O=C1C(CC[S+]([O-])c2ccccc2)C(=O)N(c2ccccc2)N1c1ccccc1 (stereo not given) | 1.097 ± 0.0059
42 | NS(=O)(=O)c1cc2c(cc1Cl)N=C(CSCc1ccccc1)NS2(=O)=O | 0.981 ± 0.02
43 | CC(=O)OC/C=C(C)/C=C/C=C(C)/C=C/C1=C(C)CCCC1(C)C | 0.905 ± 0.06
44 | CC(C)[C@@H]1CC[C@@H](C)C[C@H]1O | 0.973 ± 0.014
45 | C[C@@H]1CC(=O)NN=C1c1ccc(NN=C(C#N)C#N)cc1 | 0.868 ± 0.12
46 | O=C(O)Cc1ccccc1Nc1c(Cl)cccc1Cl | 0.95 ± 0.039
47 | C[C@@H](c1ncncc1F)[C@](O)(Cn1cncn1)c1ccc(F)cc1F | 1.13 ± 0.051
48 | CC(C)Cc1ccc([C@H](C)C(=O)O)cc1 | 0.923 ± 0.018
49 | CS(=O)(=O)c1ccc([C@@H](O)[C@@H](CO)NC(=O)C(Cl)Cl)cc1 | 0.934 ± 0.078
50 | O=c1[nH]cc(F)c(=O)[nH]1 | 0.0109 ± 0.0049
51 | C[C@]12C=CC(=O)C=C1CC[C@@H]1[C@@H]2[C@@H](O)C[C@@]2(C)[C@H]1CC[C@]2(O)C(=O)CO | 1.12 ± 0.07
52 | N=c1ccn2c(n1)O[C@H]1[C@H](O)[C@@H](CO)O[C@H]12 | 1.2 ± 0.013
53 | CO[C@@]1(NC(=O)C2SC(=C(C(N)=O)C(=O)O)S2)C(=O)N2C(C(=O)O)=C(CSc3nnnn3C)CS[C@@H]21 (stereo not given in full) | 0.00904 ± 0.00015
54 | CN(C)CCCN1c2ccccc2CCc2ccc(Cl)cc21 | 0.998 ± 0.062
55 | Cc1cc(C(C)(C)CC(C)(C)C)ccc1OCCOCC[N+](C)(C)Cc1ccccc1 | 0.822 ± 0.098
56 | Cc1cc(NC(=O)C2=C(O)c3ccccc3S(=O)(=O)N2C)no1 | 0.808 ± 0.063
57 | Nc1ccc(O)c(C(=O)O)c1 | 0.961 ± 0.075
58 | Clc1ccccc1CN1CCc2sccc2C1 | 1.02 ± 0.037
59 | CCC(=O)O[C@H](CC(=O)O)C[N+](C)(C)C | 1.05 ± 0.011
60 | COC(=O)C1=C(C)NC(C)=C(C(=O)OC)C1c1ccccc1[N+](=O)[O-] | 0.787 ± 0.067
